{"source": "patent US20050215548A1", "about": "(Cyclacel Limited, priority 2002, published 2005)", "note": "Some entries share one result that the patent states for a list of compounds."}
{"tested_on": "transformed human cell lines", "test": "72-h MTT panel, average transformed", "assay_type": "cell-based", "method": "Representative bisarylsulfonamide compounds were tested on a panel of transformed and non-transformed human cell lines, using a standard 72-h MTT cytotoxicity assay [Haselsberger K et al, ibid].\nThis differential selectivity further supports the notion that the bisarylsulfonamides modulate cellular HDM2 function. It is known that HDM2 amplification is particularly common in soft tissue sarcomas and osteosarcomas [Momand J et al, ibid; Bartel F, Meye A, Wurl P, Kappler M, Bache M, Lautenschlager C, Grunbaum U, Schmidt H, Taubert H; Int. J. Cancer 2001; 95: 168-175]."}
{"smiles": "O=[N+]([O-])c1cc(S(=O)(=O)Nc2ccc(C(F)(F)F)cc2)sc1Cl", "note": "[Compound 6, 5-Chloro-4-nitrothiophene-2-sulfonic acid (4-trifluoromethylphenyl)amide]", "fold more potent in anti-proliferative activity against transformed compared to non-transformed cell lines": "3- to 4 fold"}
{"smiles": "O=[N+]([O-])c1cc(S(=O)(=O)Nc2ccc(F)cc2)sc1Cl", "note": "[Compound 3, 5-Chloro-4-nitrothiophene-2-sulfonic acid (4-fluorophenyl)amide]", "fold more potent in anti-proliferative activity against transformed compared to non-transformed cell lines": "3- to 4 fold"}
{"smiles": "CN(c1ccc(F)cc1)S(=O)(=O)c1cc([N+](=O)[O-])c(Cl)s1", "note": "[Compound 7]", "fold more potent in anti-proliferative activity against transformed compared to non-transformed cell lines": "3- to 4 fold"}
{"smiles": "O=[N+]([O-])c1cc(S(=O)(=O)Nc2ccc(Cl)cc2)sc1Cl", "note": "[Compound 2, 5-Chloro-4-nitrothiophene-2-sulfonic acid (4-chlorophenyl)-amide]", "fold more potent in anti-proliferative activity against transformed compared to non-transformed cell lines": "3- to 4 fold"}
